Taken from: PubChem BioAssay AID1508597 (Cure First, 2020)
Shown is an unselected part of the about 2,100 reagents, under one of the conditions tested. 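Calls flag viability under 80% in either arm, not effects specific to rucaparib; the reference for percent is not stated.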 A reagent listed more than once was tested more than once; the source does not tell the runs apart. Not stated in the record: the 100% reference.

Screen: 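Knock-downs altering ovarian cancer cell survival with or without PARP inhibitor rucaparib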 (primary screen)
Cell system: human ovarian carcinoma lines grown from tumours: OCI-P5x (papillary serous) and OCI-C5x (clear cell)
Reagents: siRNA pool against human genes, 1.25 pmol siRNA per well
Timing: 72 h or 96 h, depending on the cell culture
Treatment: rucaparib 20 µM (about IC30) or vehicle, present until read-out
Rucaparib or vehicle: Rucaparib
Cell line: OCI-P5x (serous)
Read-out: 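ATP luminescence measured at 72 or 96 h according to the culture, then normalised and expressed as percent viability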
Direction: viability, normalised: higher = more viable cells remaining
Call rule: 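a well counts as a hit if its normalised viability is under 80 percent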
Calls: active = viability under 80%; inactive = viability 80% or more

| target | technical replicate | viability, normalised (%) | call |
| --- | --- | --- | --- |
| TDRD6 | 1 | 68.4 | active |
| TDRD6 | 2 | 61.1 | active |
| TDRD6 | 3 | 55.5 | active |
| DPH2 | 1 | 68.6 | active |
| DPH2 | 2 | 66.8 | active |
| DPH2 | 3 | 75.9 | active |
| NPR1 | 1 | 103 | inactive |
| NPR1 | 2 | 91.8 | inactive |
| NPR1 | 3 | 88.3 | inactive |
| RLF | 1 | 41.7 | active |
| RLF | 2 | 35.9 | active |
| RLF | 3 | 33.2 | active |
| BAZ2A | 1 | 52.1 | active |
| BAZ2A | 2 | 51.6 | active |
| BAZ2A | 3 | 53.4 | active |
| NRBP2 | 1 | 54.7 | active |
| NRBP2 | 2 | 78.2 | active |
| NRBP2 | 3 | 77.2 | active |
| MBD1 | 1 | 77.5 | active |
| MBD1 | 2 | 74.1 | active |
| MBD1 | 3 | 70.3 | active |
| PARP4 | 1 | 39.7 | active |
| PARP4 | 1 | 90.1 | inactive |
| PARP4 | 2 | 49.3 | active |
| PARP4 | 2 | 96.4 | inactive |
| PARP4 | 3 | 53.1 | active |
| PARP4 | 3 | 86 | inactive |

2 entries already listed, sorted by “viability, normalised (%)”, highest first:
| target | technical replicate | viability, normalised (%) | call |
| --- | --- | --- | --- |
| BAZ2A | 1 | 52.1 | active |
| BAZ2A | 2 | 51.6 | active |
